Measured values reported in PMC9321663, “The DevTox Germ Layer Reporter Platform: An Assay Adaptation of the Human Pluripotent Stem Cell Test” (Toxics, 2022).
Like-named read-outs stand apart in the source and are kept apart here.

Assays:
H9 embryonic stem cells = conditions: cited from earlier work
RUES2-GLR cells = experiment: DevTox GLR-Endo assay: decrease in total cell count, cytotoxicity (AEID 3098, CellCount_dn); conditions: Table S2, cell count relative to DMSO
Procedure: (§1) The total test chemical incubation period was 48 h.
(§2) Assay plate controls included non-differentiated pluripotent cells maintained in complete Essential 8 Flex medium (baseline control), endoderm differentiated cells (differentiation control), endoderm differentiated cells treated with DMSO (0.2%) (solvent control), and TGF-ß receptor inhibitor SB431542 (1 µM)-treated cells (developmental toxicant-positive control) (Figure S3). All experiments were completed with a minimum of four biological replicates (n = 4).
(§3) (Supplementary Materials).

[1] = tested on: SOX17 (endoderm marker) in RUES2-GLR cells; experiment: DevTox GLR-Endo assay: decrease in percent SOX17-positive cells (AEID 3094, Sox17_dn)
Procedure: as §1, §2, §3

[2] = tested on: SOX17 in H9 human ESC line; conditions: SOX17 half-maximal inhibition concentration; read-out: hPST IC50; cited from earlier work

Row | SMILES | quickPredict CV (H9 embryonic stem cells; cell viability) [µM] | quickPredict CV (H9 embryonic stem cells; concentration at cell viability cutoff) [µM] | Cell Count % Max Inhibition (RUES2-GLR cells) [%] | DevTox % Max Inhibition ([1]; Table S2, percent SOX17-positive cells relative to DMSO) [%] | maximum observed effect level class (% max inhibition) ([1]; stratification of training set chemicals) | MAX_MED ([1]; tcpl plot AEID3094, maximum median response) [Percent Activity] | IC50 [2] [µM] | SOX17 ACC relative to cytotoxic concentration (in words) [1]
1 | C[C@@H]1C[C@H]2[C@@H]3CCC4=CC(=O)C=C[C@]4(C)[C@@]3(F)[C@@H](O)C[C@]2(C)[C@@]1(O)C(=O)CO [Dexamethasone] | 21.8 | 21.8 | 23.7311 | 21.8449 | moderate (moderate (20–80% max inhibition)) | 21.8 | – | –
2 | CN1CCN2c3ccccc3Cc3ccccc3C2C1 (centres unmarked) [Mianserin] | – | – | – | – | – | – | 3.4 | below cytotoxic concentrations
